Our source for the binding values is patent US20190023792A1 (Innovent, published 2019).

This test deals with cynoPD-1_Fc (cyno, UniProt B0LAJ3 25-170). Kind of test: BLI (ForteBio), Fab in solution, cynoPD-1_Fc on sensor tip.

These are yes or no findings as the source states them, for the method shown. Some entries that bind do so weakly or less than the wild type.

B1: xd-16 B, Fab format produced from IgG1 expressed in yeast (Fab, V domains shown)
VH: QVQLVQSGAEVKKPGSSVKVSCKASGGTFSSTAISWVRQAPGQGLEWMGGIWPSFGTASYAQKFQGRVTITADESTSTAYMELSSLRSEDTAVYYCARAEYSSTGIFDYWGQGTLVTVSS
VL: DIQMTQSPSSVSASVGDRVTITCRASQGISSWLAWYQQKPGKAPKLLISAASSLQSGVPSRFSGSGSGTDFTLTISSLQPEDFATYYCQQANHLPFTFGGGTKVEIK
notes: Fab produced from the yeast IgG1
Regarding B1, the binding result was “binds”.

B2: xd-16 E, Fab format produced from IgG1 expressed in yeast (Fab, V domains shown)
VH: QVQLVQSGAEVKKPGSSVKVSCKASGGTFSSTAISWVRQAPGQGLEWMGGIWPSFGTANYARKFQGRVTITADESTSTAYMELSSLRSEDTAVYYCARAEYSSTGIFDYWGQGTLVTVSS
VL: DIQMTQSPSSVSASVGDRVTITCRASQGISSWLAWYQQKPGKAPKLLISAASSLQSGVPSRFSGSGSGTDFTLTISSLQPEDFATYYCQQANHLPFTFGGGTKVEIK
notes: as for B1
Turning to B2, the binding entry is recorded as “binds”.

B3: xd-16 C, Fab format produced from IgG1 expressed in yeast (Fab, V domains shown)
VH: QVQLVQSGAEVKKPGSSVKVSCKASGGTFSSTAISWVRQAPGQGLEWMGGIWPSFGTASYAQKFRGRVTITADESTSTAYMELSSLRSEDTAVYYCARAEYSSTGTFDYWGQGTLVTVSS
VL: DIQMTQSPSSVSASVGDRVTITCRASQGISSWLAWYQQKPGKAPKLLISAASSLQSGVPSRFSGSGSGTDFTLTISSLQPEDFATYYCQQANHLPFTFGGGTKVEIK
notes: as for B1
On to B3, for which the binding entry is on record as “binds”.

B4: xd-16 D, Fab format produced from IgG1 expressed in yeast (Fab, V domains shown)
VH: QVQLVQSGAEVKKPGSSVKVSCKASGGTFSSTAISWVRQAPGQGLEWMGGIWPSFDTANYAQKFRGRVTITADESTSTAYMELSSLRSEDTAVYYCARAEYSSTGTFDYWGQGTLVTVSS
VL: DIQMTQSPSSVSASVGDRVTITCRASQGISSWLAWYQQKPGKAPKLLISAASSLQSGVPSRFSGSGSGTDFTLTISSLQPEDFATYYCQQANHLPFTFGGGTKVEIK
notes: as for B1
As for B4, the binding entry is given as “binds”.
